# Positions count from the first letter of the chain named.
# T1: CD123 recombinant protein fused to Fc (UniProt P26951 19-305)
# T1 construct: Bought staining reagent; also called CD123 Recombinant fused to Fc; Sino biologicals 10518-H03H-20; not shown: Fc part
# T1 sequence (looked up): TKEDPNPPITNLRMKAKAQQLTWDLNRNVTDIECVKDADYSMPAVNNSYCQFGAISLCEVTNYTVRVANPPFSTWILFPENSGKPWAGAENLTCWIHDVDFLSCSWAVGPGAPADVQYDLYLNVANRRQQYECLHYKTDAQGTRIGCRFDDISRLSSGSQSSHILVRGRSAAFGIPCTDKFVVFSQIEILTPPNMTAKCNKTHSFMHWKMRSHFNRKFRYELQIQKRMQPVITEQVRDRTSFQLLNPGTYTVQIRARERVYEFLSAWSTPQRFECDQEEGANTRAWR
# B1: CAR 8 (chimeric CD123-specific CAR with chimeric scFv) (other)
# chain: DIVLTQSPASLAVSPGQRATISCRASESVDNYGNTFMHWYQQKPGQPPKLLIYRASNLESGIPARFSGSDSRTDFTLTINPVEADDVATYYCQQSKEDPPTFGAGTKLELKGSTSGSGKPGSGEGSTKGQIQLVQSGPELKKPGETVKISCKASGYIFTNYGMNWVKQAPGKSFKWMGWINTYTGESTYSADFKGRFAFSLETSASTAYLHINDLKNEDTATYFCARSGGYDPMDYWGQGTSVTVSSKPTTTPAPRPPTPAPTIASQPLSLRPEACRPAAGGAVHTRGLDFACDIYIWAPLAGTCGVLLLSLVITLYCNHRNRSKRSRGGHSDYMNMTPRRPGPTRKHYQPYAPPRDFAAYRSRVKFSRSADAPAYQQGQNQLYNELNLGRREEYDVLDKRRGRDPEMGGKPRRKNPQEGLYNELQKDKMAEAYSEIGMKGERRRGKGHDGLYQGLSTATKDTYDALHMQALPPR
# notes: Chimeric antigen receptor on human T cells with a mixed VH/VL scFv, CD8alpha hinge, CD8 TM, and CD28 and CD3zeta endodomains; The entry may include a signal peptide; also called chimeric CAR
# B2: CAR 2 (regular CD123-specific CAR) (other)
# chain: DIVLTQSPASLAVSPGQRATISCRASESVDNYGNTFMHWYQQKPGQPPKLLIYRASNLESGIPARFSGSDSRTDFTLTINPVEADDVATYYCQQSKEDPPTFGAGTKLELKGSTSGSGKPGSGEGSTKGQIQLVQSGPELKKPGETVKISCKTSGYVFTNYGMNWVKQAPGKGFKWMGWMNTNTGEPTSLEDFKGRFAFSLETSASTAYLQINNLKNDDTATYFCARSGGYDPMDYWGQGTSVTVSSKPTTTPAPRPPTPAPTIASQPLSLRPEACRPAAGGAVHTRGLDFACDIYIWAPLAGTCGVLLLSLVITLYCNHRNRSKRSRGGHSDYMNMTPRRPGPTRKHYQPYAPPRDFAAYRSRVKFSRSADAPAYQQGQNQLYNELNLGRREEYDVLDKRRGRDPEMGGKPRRKNPQEGLYNELQKDKMAEAYSEIGMKGERRRGKGHDGLYQGLSTATKDTYDALHMQALPPR
# notes: Chimeric antigen receptor on human T cells with CD8alpha hinge, CD8 TM, and CD28 and CD3zeta endodomains; The entry may include a signal peptide; also called Regular CAR
# B3: CAR 4 (regular CD123-specific CAR) (other)
# chain: B1 chain with P15L, D70G, K96N
# notes: as for B2
# B4: CAR 3 (regular CD123-specific CAR) (other)
# chain: DIVMTQAAPSVPVTPGESVSISCRSNKSLLHSNGNTYLYWFLQRPGQSPQLLIYRMSNLASGVPDRFSGSGSGTAFTLRISRVEAEDVGVYYCMQHLEYPYTFGGGTKLEIKGSTSGSGKPGSGEGSTKGQVQLQQPGAELVKPGAPVKLSCKASGYTFTNYWMNWIKQRPGRGLEWIGRIDPSDSESHYNQKFKDKATLTVDKSSNTAYIQLSSLTSEDSAVYYCARYDYDDTMDYWGQGTSVTVSSKPTTTPAPRPPTPAPTIASQPLSLRPEACRPAAGGAVHTRGLDFACDIYIWAPLAGTCGVLLLSLVITLYCNHRNRSKRSRGGHSDYMNMTPRRPGPTRKHYQPYAPPRDFAAYRSRVKFSRSADAPAYQQGQNQLYNELNLGRREEYDVLDKRRGRDPEMGGKPRRKNPQEGLYNELQKDKMAEAYSEIGMKGERRRGKGHDGLYQGLSTATKDTYDALHMQALPPR
# notes: as for B2
# B5: CAR 5 (chimeric CD123-specific CAR with chimeric scFv) (other)
# chain: DVQITQSPSYLAASPGETITINCRASKSISKDLAWYQEKPGKTNKLLIYSGSTLQSGIPSRFSGSGSGTDFTLTISSLEPEDFAMYYCQQHNKYPYTFGGGTKLEIKGSTSGSGKPGSGEGSTKGQIQLVQSGPELKKPGETVKISCKTSGYVFTNYGMNWVKQAPGKGFKWMGWMNTNTGEPTSLEDFKGRFAFSLETSASTAYLQINNLKNDDTATYFCARSGGYDPMDYWGQGTSVTVSSKPTTTPAPRPPTPAPTIASQPLSLRPEACRPAAGGAVHTRGLDFACDIYIWAPLAGTCGVLLLSLVITLYCNHRNRSKRSRGGHSDYMNMTPRRPGPTRKHYQPYAPPRDFAAYRSRVKFSRSADAPAYQQGQNQLYNELNLGRREEYDVLDKRRGRDPEMGGKPRRKNPQEGLYNELQKDKMAEAYSEIGMKGERRRGKGHDGLYQGLSTATKDTYDALHMQALPPR
# notes: Chimeric antigen receptor on human T cells; The scFv mixes VH and VL of two different anti-CD123 mAbs (26292, 32701, 32703, 32716), with CD8alpha hinge, CD8 TM, and CD28 and CD3zeta endodomains; also called chimeric CAR
# B6: CAR 7 (chimeric CD123-specific CAR with chimeric scFv) (other)
# chain: DVQITQSPSYLAASPGETITINCRASKSISKDLAWYQEKPGKTNKLLIYSGSTLQSGIPSRFSGSGSGTDFTLTISSLEPEDFAMYYCQQHNKYPYTFGGGTKLEIKGSTSGSGKPGSGEGSTKGQIQLVQSGPELKKPGETVKISCKASGYIFTNYGMNWVKQAPGKSFKWMGWINTYTGESTYSADFKGRFAFSLETSASTAYLHINDLKNEDTATYFCARSGGYDPMDYWGQGTSVTVSSKPTTTPAPRPPTPAPTIASQPLSLRPEACRPAAGGAVHTRGLDFACDIYIWAPLAGTCGVLLLSLVITLYCNHRNRSKRSRGGHSDYMNMTPRRPGPTRKHYQPYAPPRDFAAYRSRVKFSRSADAPAYQQGQNQLYNELNLGRREEYDVLDKRRGRDPEMGGKPRRKNPQEGLYNELQKDKMAEAYSEIGMKGERRRGKGHDGLYQGLSTATKDTYDALHMQALPPR
# notes: as for B1
# B7: CAR 6 (chimeric CD123-specific CAR with chimeric scFv) (other)
# chain: DVQITQSPSYLAASPGETITINCRASKSISKDLAWYQEKPGKTNKLLIYSGSTLQSGIPSRFSGSGSGTDFTLTISSLEPEDFAMYYCQQHNKYPYTFGGGTKLEIKGSTSGSGKPGSGEGSTKGQVQLQQPGAELVKPGAPVKLSCKASGYTFTNYWMNWIKQRPGRGLEWIGRIDPSDSESHYNQKFKDKATLTVDKSSNTAYIQLSSLTSEDSAVYYCARYDYDDTMDYWGQGTSVTVSSKPTTTPAPRPPTPAPTIASQPLSLRPEACRPAAGGAVHTRGLDFACDIYIWAPLAGTCGVLLLSLVITLYCNHRNRSKRSRGGHSDYMNMTPRRPGPTRKHYQPYAPPRDFAAYRSRVKFSRSADAPAYQQGQNQLYNELNLGRREEYDVLDKRRGRDPEMGGKPRRKNPQEGLYNELQKDKMAEAYSEIGMKGERRRGKGHDGLYQGLSTATKDTYDALHMQALPPR
# notes: as for B1
# Molecular target: T1, CD123 recombinant protein fused to Fc
# Test: flow cytometry, day 21; CAR T cells stained with CD123-Fc, then anti-Fc and anti-CD3
# Excerpt: CAR plasmids (typical representation of CAR plasmid is given in FIG. 3B, left) along with transposase SB11 (FIG. 3B, right) were electroporated into CD56⁺ NK cell depleted PBMC and expanded on Clone1-CD123 at 2:1 AaPC:T cell ratio in presence of recombinant cytokines IL2 and IL-21. T cell cultures were stimulated with AaPC and surface phenotyped every 7 days starting from day 1. CAR expression was detected with CD123 recombinant protein fused to Fc followed by serial staining with antibodies specific to Fc and CD3. […] Chimeric CARs expanded at similar rates as regular CARs (FIGS. 4B and 4C).
row,Binder,binding result
1,B1,binds
2,B2,binds
3,B3,binds
4,B4,binds
5,B5,binds
6,B6,binds
7,B7,binds
